This is one part of the list.
How the values were obtained:
Experiment in all cases: glycan array binding signal (z-score within array); higher = stronger binding
Conditions in all cases: glycan notation: IUPAC condensed, linker removed
[1] = molecular target: GlcNAc(b1-2)[GlcNAc(b1-4)]Man(a1-3)[GlcNAc(b1-4)][GlcNAc(b1-2)[GlcNAc(b1-6)]Man(a1-6)]Man(b1-4)GlcNAc(b1-4)GlcNAc
How it was run: (§1)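 Columns mapping to the same glycan were averaged after glycan names were converted to IUPAC-condensed notation. The data come from 3228 arrays in the Consortium for Functional Glycomics database, limited to those with an available protein sequence. Binding is reported as a within-array Z-score averaged across arrays of one protein sequence and across linkers.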

[2] = molecular target: GlcNAc(b1-2)[GlcNAc(b1-4)]Man(a1-3)[GlcNAc(b1-4)][GlcNAc(b1-2)[GlcNAc(b1-6)]Man(a1-6)]Man(b1-4)GlcNAc(b1-4)[Fuc(a1-6)]GlcNAc
How it was run: as §1

[3] = molecular target: GlcNAc(b1-2)[GlcNAc(b1-6)]Man(a1-6)[GlcNAc(b1-2)Man(a1-3)]Man(b1-4)GlcNAc(b1-4)GlcNAc
How it was run: as §1

[4] = molecular target: GlcNAc(b1-2)[GlcNAc(b1-6)]Man(a1-6)[GlcNAc(b1-2)Man(a1-3)]Man(b1-4)GlcNAc(b1-4)[Fuc(a1-6)]GlcNAc
How it was run: as §1

[5] = molecular target: GlcNAc(b1-2)[GlcNAc(b1-6)]Man(a1-6)[GlcNAc(b1-4)][GlcNAc(b1-2)Man(a1-3)]Man(b1-4)GlcNAc(b1-4)GlcNAc
How it was run: as §1

GlcNAc(b1-3)Fuc = molecular target: GlcNAc(b1-3)Fuc
How it was run: as §1

GlcNAc(b1-3)Gal = molecular target: GlcNAc(b1-3)Gal
How it was run: as §1

[6] = molecular target: GlcNAc(b1-3)Gal(b1-3)GalNAc
How it was run: as §1

GlcNAc(b1-3)Gal(b1-4)Glc = molecular target: GlcNAc(b1-3)Gal(b1-4)Glc
How it was run: as §1

[7] = molecular target: GlcNAc(b1-3)Gal(b1-4)GlcNAc
How it was run: as §1

[8] = molecular target: GlcNAc(b1-3)Gal(b1-4)GlcNAc(b1-2)Man(a1-3)[GlcNAc(b1-3)Gal(b1-4)GlcNAc(b1-2)Man(a1-6)]Man(b1-4)GlcNAc(b1-4)GlcNAc
How it was run: as §1

[9] = molecular target: GlcNAc(b1-3)Gal(b1-4)GlcNAc(b1-2)Man(a1-3)[GlcNAc(b1-3)Gal(b1-4)GlcNAc(b1-2)Man(a1-6)]Man(b1-4)GlcNAc(b1-4)[Fuc(a1-6)]GlcNAc
How it was run: as §1

[10] = molecular target: GlcNAc(b1-3)Gal(b1-4)GlcNAc(b1-2)[GlcNAc(b1-3)Gal(b1-4)GlcNAc(b1-6)]Man(a1-6)[GlcNAc(b1-3)Gal(b1-4)GlcNAc(b1-2)Man(a1-3)]Man(b1-4)GlcNAc(b1-4)GlcNAc
How it was run: as §1

[11] = molecular target: GlcNAc(b1-3)Gal(b1-4)GlcNAc(b1-3)Gal(b1-4)GlcNAc
How it was run: as §1

[12] = molecular target: GlcNAc(b1-3)Gal(b1-4)GlcNAc(b1-3)Gal(b1-4)GlcNAc(b1-2)Man(a1-3)[GlcNAc(b1-3)Gal(b1-4)GlcNAc(b1-3)Gal(b1-4)GlcNAc(b1-2)Man(a1-6)]Man(b1-4)GlcNAc(b1-4)GlcNAc
How it was run: as §1

[13] = molecular target: GlcNAc(b1-3)Gal(b1-4)GlcNAc(b1-3)Gal(b1-4)GlcNAc(b1-2)Man(a1-3)[GlcNAc(b1-3)Gal(b1-4)GlcNAc(b1-3)Gal(b1-4)GlcNAc(b1-2)Man(a1-6)]Man(b1-4)GlcNAc(b1-4)[Fuc(a1-6)]GlcNAc
How it was run: as §1

[14] = molecular target: GlcNAc(b1-3)Gal(b1-4)GlcNAc(b1-3)Gal(b1-4)GlcNAc(b1-2)[GlcNAc(b1-3)Gal(b1-4)GlcNAc(b1-3)Gal(b1-4)GlcNAc(b1-6)]Man(a1-6)[GlcNAc(b1-3)Gal(b1-4)GlcNAc(b1-3)Gal(b1-4)GlcNAc(b1-2)Man(a1-3)]Man(b1-4)GlcNAc(b1-4)[Fuc(a1-6)]GlcNAc
How it was run: as §1

[15] = molecular target: GlcNAc(b1-3)Gal(b1-4)GlcNAc(b1-3)Gal(b1-4)GlcNAc(b1-3)Gal(b1-4)GlcNAc(b1-2)Man(a1-3)[GlcNAc(b1-3)Gal(b1-4)GlcNAc(b1-3)Gal(b1-4)GlcNAc(b1-3)Gal(b1-4)GlcNAc(b1-2)Man(a1-6)]Man(b1-4)GlcNAc(b1-4)GlcNAc
How it was run: as §1

[16] = molecular target: GlcNAc(b1-3)Gal(b1-4)GlcNAc(b1-3)Gal(b1-4)GlcNAc(b1-3)Gal(b1-4)GlcNAc(b1-2)Man(a1-3)[GlcNAc(b1-3)Gal(b1-4)GlcNAc(b1-3)Gal(b1-4)GlcNAc(b1-3)Gal(b1-4)GlcNAc(b1-2)Man(a1-6)]Man(b1-4)GlcNAc(b1-4)[Fuc(a1-6)]GlcNAc
How it was run: as §1

[17] = molecular target: GlcNAc(b1-3)Gal(b1-4)GlcNAc(b1-3)Gal(b1-4)GlcNAc(b1-3)Gal(b1-4)GlcNAc(b1-2)[GlcNAc(b1-3)Gal(b1-4)GlcNAc(b1-3)Gal(b1-4)GlcNAc(b1-3)Gal(b1-4)GlcNAc(b1-6)]Man(a1-6)[GlcNAc(b1-3)Gal(b1-4)GlcNAc(b1-3)Gal(b1-4)GlcNAc(b1-3)Gal(b1-4)GlcNAc(b1-2)Man(a1-3)]Man(b1-4)GlcNAc(b1-4)[Fuc(a1-6)]GlcNAc
How it was run: as §1

[18] = molecular target: GlcNAc(b1-3)Gal(b1-4)GlcNAc(b1-3)Gal(b1-4)GlcNAc(b1-3)Gal(b1-4)GlcNAc(b1-3)Gal(b1-4)GlcNAc(b1-2)Man(a1-3)[GlcNAc(b1-3)Gal(b1-4)GlcNAc(b1-3)Gal(b1-4)GlcNAc(b1-3)Gal(b1-4)GlcNAc(b1-3)Gal(b1-4)GlcNAc(b1-2)Man(a1-6)]Man(b1-4)GlcNAc(b1-4)GlcNAc
How it was run: as §1

[19] = molecular target: GlcNAc(b1-3)Gal(b1-4)GlcNAc(b1-3)Gal(b1-4)GlcNAc(b1-3)Gal(b1-4)GlcNAc(b1-3)Gal(b1-4)GlcNAc(b1-2)Man(a1-3)[GlcNAc(b1-3)Gal(b1-4)GlcNAc(b1-3)Gal(b1-4)GlcNAc(b1-3)Gal(b1-4)GlcNAc(b1-3)Gal(b1-4)GlcNAc(b1-2)Man(a1-6)]Man(b1-4)GlcNAc(b1-4)[Fuc(a1-6)]GlcNAc
How it was run: as §1

[20] = molecular target: GlcNAc(b1-3)Gal(b1-4)GlcNAc(b1-3)Gal(b1-4)GlcNAc(b1-3)Gal(b1-4)GlcNAc(b1-3)Gal(b1-4)GlcNAc(b1-2)[GlcNAc(b1-3)Gal(b1-4)GlcNAc(b1-3)Gal(b1-4)GlcNAc(b1-3)Gal(b1-4)GlcNAc(b1-3)Gal(b1-4)GlcNAc(b1-6)]Man(a1-6)[GlcNAc(b1-3)Gal(b1-4)GlcNAc(b1-3)Gal(b1-4)GlcNAc(b1-3)Gal(b1-4)GlcNAc(b1-3)Gal(b1-4)GlcNAc(b1-2)Man(a1-3)]Man(b1-4)GlcNAc(b1-4)[Fuc(a1-6)]GlcNAc
How it was run: as §1

[21] = molecular target: GlcNAc(b1-3)Gal(b1-4)GlcNAc(b1-3)Gal(b1-4)GlcNAc(b1-3)GalNAc
How it was run: as §1

[22] = molecular target: GlcNAc(b1-3)Gal(b1-4)GlcNAc(b1-3)GalNAc
How it was run: as §1

[23] = molecular target: GlcNAc(b1-3)Gal(b1-4)GlcNAc(b1-3)[GlcNAc(b1-3)Gal(b1-4)GlcNAc(b1-3)]GalNAc
How it was run: as §1

[24] = molecular target: GlcNAc(b1-3)Gal(b1-4)GlcNAc(b1-6)[Gal(b1-3)]GalNAc
How it was run: as §1

[25] = molecular target: GlcNAc(b1-3)Gal(b1-4)GlcNAc(b1-6)[GlcNAc(b1-3)Gal(b1-3)]GalNAc
How it was run: as §1

[26] = molecular target: GlcNAc(b1-3)Gal(b1-4)GlcNAc(b1-6)[GlcNAc(b1-3)]Gal(b1-4)GlcNAc
How it was run: as §1

GlcNAc(b1-3)GalNAc = molecular target: GlcNAc(b1-3)GalNAc
How it was run: as §1

GlcNAc(b1-3)Man = molecular target: GlcNAc(b1-3)Man
How it was run: as §1

[27] = molecular target: GlcNAc(b1-3)[GlcNAc(b1-4)][GlcNAc(b1-6)]GlcNAc
How it was run: as §1

[28] = molecular target: GlcNAc(b1-3)[GlcNAc(b1-6)]Gal(b1-4)GlcNAc
How it was run: as §1

[29] = molecular target: GlcNAc(b1-3)[GlcNAc(b1-6)]GalNAc
How it was run: as §1

[30] = molecular target: GlcNAc(b1-4)Gal(b1-4)GlcNAc
How it was run: as §1

GlcNAc(b1-4)GlcNAc = molecular target: GlcNAc(b1-4)GlcNAc
How it was run: as §1

[31] = molecular target: GlcNAc(b1-4)GlcNAc(b1-4)GlcNAc
How it was run: as §1

[32] = molecular target: GlcNAc(b1-4)GlcNAc(b1-4)GlcNAc(b1-4)GlcNAc(b1-4)GlcNAc
How it was run: as §1

B1: GS7807Q-bfa-507-19-507 (Bacteroides fragilis) (protein)
chain: ASCNKFDDLNTNPDAATKVTAPMLATKLILNITQQGSAKNFVYHSMLSKQIAWSENASDEQYNLFGRTDFDGYTILTNCQKMVDAANEGDKDSYAALAKFMKAYKLFYKSLEVGDIPYSDALKGEEGVQKPKYDTQKEVMRQVLEDLEEAYTLFSSGSDFDGDPIFGGDTENWKKTVVAFELKVLTHLCKKDTDADLKVKERFARLVSSGSLMTSNADNFQLVYSNKAGQLYPFYYTQNKHSDYLMMSSVIIDNLKKFNDYRMFYYASPAKAQTDKGIKDSEWDAYLSIDPSDSYSNISVLYGKGEFCLANLRYTRVPEGEPLMRLSYAEQNFILAEGAVRGWISEDASTYYKKGIEASMNFIADNTPDKEEYTHGRTITQEYIQEYLAQPVIQLSGDKEKDLEMILLQRYLASFLQHPYDAYYDYRRTGYPVLPINPSTNLNTEKNKIPTRWMYPEAEFSYNPDNANEAVQRQYNGSDDVNKLMWILQ
glycan array binding signal (z-score) [1]: -0.365 | glycan array binding signal (z-score) [2]: -0.338 | glycan array binding signal (z-score) [3]: 0.342 | glycan array binding signal (z-score) [4]: 0.275 | glycan array binding signal (z-score) [5]: -0.085 | glycan array binding signal (z-score) (GlcNAc(b1-3)Fuc): 0.209 | glycan array binding signal (z-score) (GlcNAc(b1-3)Gal): -0.095 | glycan array binding signal (z-score) [6]: 0.348 | glycan array binding signal (z-score) (GlcNAc(b1-3)Gal(b1-4)Glc): 0.157 | glycan array binding signal (z-score) [7]: -0.332 | glycan array binding signal (z-score) [8]: -0.076 | glycan array binding signal (z-score) [9]: 2.43 | glycan array binding signal (z-score) [10]: 1.65 | glycan array binding signal (z-score) [11]: -1.04 | glycan array binding signal (z-score) [12]: 1.69 | glycan array binding signal (z-score) [13]: 1.07 | glycan array binding signal (z-score) [14]: 2.73 | glycan array binding signal (z-score) [15]: -0.806 | glycan array binding signal (z-score) [16]: 0.62 | glycan array binding signal (z-score) [17]: 0.11 | glycan array binding signal (z-score) [18]: 1.83 | glycan array binding signal (z-score) [19]: -0.41 | glycan array binding signal (z-score) [20]: 0.964 | glycan array binding signal (z-score) [21]: -0.585 | glycan array binding signal (z-score) [22]: 0.273 | glycan array binding signal (z-score) [23]: -0.737 | glycan array binding signal (z-score) [24]: -0.569 | glycan array binding signal (z-score) [25]: 1.15 | glycan array binding signal (z-score) [26]: 0.947 | glycan array binding signal (z-score) (GlcNAc(b1-3)GalNAc): -0.376 | glycan array binding signal (z-score) (GlcNAc(b1-3)Man): -1.62 | glycan array binding signal (z-score) [27]: -0.667 | glycan array binding signal (z-score) [28]: -0.251 | glycan array binding signal (z-score) [29]: -0.346 | glycan array binding signal (z-score) [30]: -0.737 | glycan array binding signal (z-score) (GlcNAc(b1-4)GlcNAc): -0.323 | glycan array binding signal (z-score) [31]: -0.081 | glycan array binding signal (z-score) [32]: -0.699

Source: the supplement of paper PMC8728848
